In all, about 53,000 sequences went through this assay and about 3,700 (7%) were called active.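 How the source made its calls: active means gene knockdowns whose robust z-score for IL-1 alpha signal is at least 2 or at most -2, so actives lie on both sides; inactive means the rest.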 The list shows a part of the results.

This experiment can be described thus: Components of the Cytosolic LPS Sensing Pathway: Gene Identification via Genome-wide siRNA Screen.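 Further: robust z of the log signal after scaling to non-targeting control siRNA wells of the plate.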 Conditions: RAW264.7 macrophages, IL-1a HTRF, actives lie on both sides, screened at 100 nM (by protocol), cells primed 5 h with Pam3CSK4 first. The gist of the method: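 Using IL-1a HTRF as read-out, the screen measured release from RAW264.7 cells after 48h siRNA knockdown (100 nM), 5 h Pam3CSK4 priming and 24 h cytosolic LipidA. Values were expressed relative to negative-control wells as robust z-scores.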
(In general: Time-resolved FRET reads energy transfer from a long-lived donor to a nearby acceptor.)
For the sequence GGUGAAAAUAAUAGAGCGGTT against Maats1, the z-score was inactive: 1.21.
Turning to GGAAGAAGAUGGAGAUAAATT against Neurod4, the z-score is inactive: 0.665.
With GGAUAGUCAGAAAUGGAAATT against Chmp4c, the z-score is inactive: -0.43.
In the case of CCGUCACUAUACCCAAGUUTT against Olfr802 it was inactive: -0.582.
Consider GGGUCAUCCUCUAUGCAGUTT against Taar6, for which the z-score is inactive: -0.266.
With GGACACAAUACCACUGACCTT against Mapk1ip1 the figure was inactive: -0.415; with GCCAACCUACUGAGUCUCATT against Ccdc12, inactive: -0.657; with GGCCAUGAAUAUGGAGUCCTT against Cptp, inactive: 0.623.
Consider GGGAACAGAAGUUGUGAGATT against Gulp1, for which the z-score was inactive: 1.5.
With CGUGGAAGCUGUGUUAUCUTT against Il34 the figure was inactive: -0.112.
With GGUGUUACAGAUGUACCGATT against Nfkbid, the z-score was inactive: 0.0859.
In the case of GGCUCUGAGAUCUAUGAAATT against Dop1b it was inactive: -0.953; in that of GCACAAUUAUGAGAGUGCATT against Grin1, inactive: -0.91.
In the case of GGUUUUGGAGAGAAUUGCCTT against Cog2 it was inactive: -0.468.
In the case of CCACUGAUGACAUGACUCUTT against Vmn1r178 it was inactive: 1.59; in that of GGGCUAGUUUCUUUUUUUGTT against Nipal4, inactive: -0.128.
For GGUGCGUAACUUAUUUUUATT against Wdr77, the z-score was inactive: 1.45.
In the case of GCAGUGUUGUCAAAACUUGTT against Mtfmt it was inactive: 1.54.
With GGACUAUGUGGCCCAGUGUTT against Nat8f5 the figure was inactive: -1.11; with GGGUUAAGUACAGAAGAUCTT against Cask, inactive: -1.41; with GCUACGAGCAGAUGAUGGATT against Spc24, inactive: 0.254.
Take GGACUUAUCGGUUAUCUUUTT against Nap1l2: the z-score was inactive: 1.12.
With GCUGUUGUGUGAGGUAACCTT against Lag3 the figure was inactive: -1.98; with CCUGUUCUCUCACCAUCAUTT against Olfr1026, inactive: -0.562; with UCUCCUUCAUUCCAUGUAUTT against Olfr441, active: -2.18.
In the case of GCGGCCGAAAUUUAUGAGGTT against U2surp it was inactive: 0.382; in that of GGAAGAGGAUGAGUUAGGGTT against Ppp1r1b, inactive: -1.24; in that of GGGCAUUUGCUGUAAAUUATT against Hace1, inactive: 0.611.
With GCGGAGGAGUUUUCUUCGATT against Susd4 the figure was inactive: 0.93; with AAGGUUUGGAAACUCAUUGTT against Zbtb25, inactive: -1.77; with GCAUGUUUUCCACACCGGUTT against Vmn1r44, inactive: -0.135.
As to GCUUUUAGAAUAAAGCUGATT against Fgl2, the z-score is inactive: 0.75.
In the case of GGGUGUUCCAGAAGUAUCUTT against Lars2 it was inactive: -1.76; in that of GCUACAGUAGUAAGACUAATT against Usp53, active: 2.67; in that of GGUGGCUGUACUUUUGAUGTT against Ptprk, inactive: -0.0561.
For the sequence GGUCCCUCUACCCAAAGUUTT against Nsa2, the z-score is inactive: -0.115.
In the case of GGCUUAAGUAUUUUUCUGATT against Aktip it was inactive: -0.269; in that of CCAGUCGUGAACUUGAAAGTT against Gtf3c6, inactive: -0.935.
With CCGAUAAUGCUUUCUUUGGTT against Ppp1cc the figure was inactive: 0.547; with CGGAAAUCGGCAAGCUUCUTT against Dtymk, inactive: -0.306; with GGUCUUGGACUUGUAUUACTT against Pcdha4, inactive: -0.486.
In the case of CCAAAACUUCCUGUGGUUCTT against Mfsd13a it was inactive: 0.334.
With GGAUCUGUACAAGACUUAUTT against Olfr800, the z-score was inactive: -0.011.
With GGGUCAAAAAGUCAAAUCUTT against Vmn1r69 the figure was inactive: 0.997; with GCGGUUACAAAUAUGUGGGTT against Yif1a, inactive: 0.818.
With GCCCAUUAUUUUCGGACUGTT against Olfr845 the figure was inactive: 1.03.
With “GGGCAUGAAAGAAUUCUUATT against D130040H23Rik” the figure was active: -2.83; with GCUUCGUGAGCAGUAUCUATT against Tpsb2, inactive: -1.03; with GGCCAUGAAGGAAUAUGAATT against Cdc37, inactive: -1.21.
For the sequence GGGACUAACUUUCACCAGGTT against Wrap73, the z-score was inactive: -0.609.
Turning to GCUGCAUUCGGUUACCACUTT against Olfml2b, the z-score is inactive: 0.677.
With CCGCGUAGUGGAUACAUUUTT against Ap3m2 the figure was inactive: -0.0673; with GGAACAAACGUGACUGUCATT against Rdh14, inactive: -0.155; with GAUGAUCUUUCUUUCCAUCTT against Plekhh1, inactive: 0.158.
In the case of GGACAGAUCGAAUGCCAGUTT against Pdpr it was inactive: 0.821.
In the case of GGAAACCUCAUCCAUUCCCTT against Ei24 it was inactive: 1.52; in that of GGCUACCUUUGUUAAAUCUTT against Rab10, inactive: -0.336.
GGACAAGGCCCUCAUGAUUTT against Nek8: the z-score is inactive: -0.468.
For GCUCACUUGUAGUGCUUUATT against Arf2, the z-score is inactive: 1.88.
Take GAGUUGUACUCUUCACUAUTT against Olfr497: the z-score was active: -2.6.
With GGAAAUAAAACAGAUUUGGTT against Atpaf1 the figure was inactive: 0.576.
With GGUGAUCAUCCAUGAAUUCTT against Chaf1a the figure was inactive: -1.2.
In the case of GGAUAUUCAUGUUUCAUUGTT against Vipr2 it was inactive: 0.836.
Regarding GGAAUGUAAGAACCCUUGCTT against Adam19, the z-score was inactive: 1.77.
With GCAUCCUCUCACUCUCAAUTT against Grin2a the figure was active: 2.37; with GAGGUCAUUAUACCAUUGGTT against Tuba3b, inactive: 0.554.
With GGAAUCCAACCUCUGUGAUTT against Cdca2 the figure was inactive: -0.091; with CCAACCUCCCAUUCUGAAUTT against Ttc22, inactive: 1.71; with GGGAGGGACUUUUAAACUUTT against Ube2n, inactive: -0.414.
In the case of CCAACUCGGCUGUUUUUUATT against F11r it was inactive: 0.149; in that of GCCUAAAAAAUCUCUGUGATT against Zswim3, active: -2.77.
Regarding GGCUGAUCUCUUUUGCCAGTT against Reg2, the z-score is inactive: 0.00409.
In the case of GCAAACUAUUUGUCUGGUGTT against Ripk1 it was inactive: 0.7; in that of CCAAGCACGCACCAAGAUCTT against Lrrc45, inactive: 0.365; in that of GCCAUGUUAACUGCCUCAATT against Bmyc, inactive: -0.306.
With CGAGAUUGUCAGUCUUUCCTT against Pcgf2 the figure was inactive: 1.17; with CCCUCUCUACGAUGACUCUTT against Parm1, active: -2; with GGUACGGUUAAUAGCCACGTT against Snai2, inactive: -1.
In the case of CCCGAUUACUGGAGUUAAATT against Kbtbd7 it was active: 2.32; in that of GCGGUUGAUGUCCUGUGUUTT against Adra1b, inactive: -1.45.
GCAUUACCAAAAGCAGUCUTT against Lyn: the z-score is inactive: -1.46.
In the case of “GCUCCAACGUAAGUGGGAATT against 1700123L14Rik” it was inactive: -0.886; in that of CGUUCUUUUACAGUGCUUGTT against Lonrf3, inactive: 0.139.
In the case of GCGACAGUCCAACUUUUAATT against Allc it was inactive: -1.87; in that of GGAGAAAAGGACUGAAGGCTT against Ralbp1, inactive: 1.43.
With GGUAAAAGGUGCCUUGAGATT against Olfr446 the figure was inactive: 0.111.
On to GGCACUGAGGUUGUUCAGGTT against Eif3h, for which the z-score is inactive: 0.806.
Take GCUUGACGCGAACUUACCATT against Endog: the z-score is active: 2.35.
In the case of CCCUUCUCACUAACAUACATT against Dach1 it was inactive: 1.18; in that of GGCCAACAGGACAGAGAUGTT against Gm5105, inactive: 0.86.
With GGAAAUGCUGCCAUUGUUATT against Aldh3a2 the figure was inactive: 0.333; with CGGUAAAGUGAAUCAUAGATT against Tas2r105, inactive: 0.726.
In the case of CCUUAAUAAACUAUGCUGCTT against Tonsl it was inactive: -0.132; in that of GGAGCAACAGCCAAAUACCTT against Hmgb4, active: 2.39; in that of GGUGGUGAUAUCAAGAAUCTT against Sfxn3, inactive: -1.25.
Turning to GGAGUUCCUGAUUUACGUCTT against Usp50, the z-score was inactive: -0.751.
In the case of CGUGUGGAGUAAACACCAATT against Herc3, the z-score was inactive: -0.639.
GGGCAGUCAUAGCUUUAGUTT against Fndc11: the z-score is inactive: 0.837.
As to GGAGCUUGAAGCAUCCUAGTT against Bdkrb2, the z-score is inactive: -0.585.
With CGAUGUCAUGCUCAGCGCATT against Nlgn2 the figure was inactive: -0.389; with GGGUGAUCUGUAGUAUUUUTT against Olfr574, inactive: -0.879.
In the case of GGAUGCUAUAUGUUGGCCGTT against Ly6g6g it was inactive: 0.277.
In the case of GCUCCUGUGAUUGAUGCAGTT against Dync1h1 it was inactive: 0.528; in that of “GCCUUAACCGCCAGAUGUCTT against 2900026A02Rik”, inactive: 0.348.
With GGAGCCGAGUACAACAUCATT against B4galnt1, the z-score is inactive: -0.451.
With GGAAGAGAGCCUCUGCCAATT against Ccnb2 the figure was active: 2.28; with GGUGGAAAAAUAUUCUGCATT against Kcnk2, inactive: 0.338.

The values are drawn from PubChem BioAssay AID1508600 (Functional Genomics Laboratory (NCATS/FGL), 2020).
